Experimental data as given in patent publication US10881639B2, “Use of composition of multivitamin in preparing drug for stimulating gastrointestinal system motility” (Zensun (Shanghai) Science & Technology, Co., Ltd., priority 2015, dated 2021).
Structures can show the parent of a compound that is named as a salt.

Test system: mice with 2.5 mg/kg loperamide-induced constipation
Test: Small intestinal propulsive rate of a charcoal solution in mice with 2.5 mg/kg loperamide-induced constipation, with positive controls (Example 2)
Format: in vivo, mouse
Conditions: positive drugs intragastric: itopride 30.75, naloxone 5.0, domperidone 6.16, mosapride citrate 3.075 mg/kg; loperamide 2.5 mg/kg s.c.
From the text: 1.2 Experimental Animals Species: mouse Strains: C57BL/6 Gender and quantity: Female, 65 Animal week-age: 8-9 weeks Weight range: 19.0-25.0 g Animal sources: Shanghai Lingchang Biotechnology Co. LTD Animal certificate number: 2013001804393 2. Experimental Design and Methods 2.1 Test Grouping:
Experimental animals were randomly divided into 8 groups (8 animals per group) by the random number table method.
2.2 Reagent Preparation 1) 0.5% CMC—Na solution: 2.0 g of CMC—Na powder was weighed and 300 ml ultra-pure water was slowly added thereto; the mixture was subjected to magnetic stirring until it was completely dissolved to reach a constant volume of 400 ml, thereby preparing a clear solution of 0.5%, which was stored at 4° C. for later use. 2) 1% Tween-80 in saline: 40 ml saline was accurately measured using a measuring cylinder and added into a 50 ml centrifuge tube; 400 μl Tween-80 was measured using a pipette and added into the centrifuge tube; and the mixture was subjected to vortex oscillation to be homogeneous and was then placed at room temperature for later use. 3) 5% charcoal solution: 100 g of Arabic gum was accurately weighed and 800 ml water was added thereto; and the solution was boiled until it was transparent. 50 g of activated carbon powder was weighed and added into the above solution and the mixture was boiled for three times. […]

COc1ccc(C(=O)NCc2ccc(OCCN(C)C)cc2)cc1OC [Itopride hydrochloride]
Length of the small intestine: 19.1 ± 1.1 cm
weight: 22.5 ± 1.1 g
